Assay results taken from patent US20220235136A1, “METHODS AND COMPOSITIONS FOR TREATING A DISEASE OR DISORDER” (YALE UNIVERSITY, priority 2019, published 2022).
Results are given in words; binding and its absence hold for the method and conditions named. Some binding calls cover weakened binding; strength is not graded here. For some assays here: Tags and fused reporters may be left off the sequences shown. Blank lines part the entries; values can stand above or below the substance they belong to.

Chains of the proteins cited; added tags and fusions are not shown. Lines headed by an entry give the natural chain unless they say otherwise; changes in a name come on top.
UniProt Q9NPY3: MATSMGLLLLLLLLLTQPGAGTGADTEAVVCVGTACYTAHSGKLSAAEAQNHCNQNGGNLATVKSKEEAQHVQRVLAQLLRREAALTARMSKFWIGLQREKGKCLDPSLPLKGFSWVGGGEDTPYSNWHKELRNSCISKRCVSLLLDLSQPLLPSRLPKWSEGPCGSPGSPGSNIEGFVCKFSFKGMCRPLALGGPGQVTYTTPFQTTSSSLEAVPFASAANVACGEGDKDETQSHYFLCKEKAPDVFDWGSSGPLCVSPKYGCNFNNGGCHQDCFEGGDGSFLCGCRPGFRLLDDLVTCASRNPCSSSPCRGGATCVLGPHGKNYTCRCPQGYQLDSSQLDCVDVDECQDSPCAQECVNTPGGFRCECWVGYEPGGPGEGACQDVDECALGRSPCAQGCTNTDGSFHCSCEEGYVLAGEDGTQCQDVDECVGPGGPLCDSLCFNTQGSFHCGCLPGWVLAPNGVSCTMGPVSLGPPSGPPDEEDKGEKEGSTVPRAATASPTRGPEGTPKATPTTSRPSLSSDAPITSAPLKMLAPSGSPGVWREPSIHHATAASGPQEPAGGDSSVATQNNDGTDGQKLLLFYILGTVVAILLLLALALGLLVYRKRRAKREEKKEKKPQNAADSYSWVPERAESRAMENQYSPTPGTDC

Experiments:
[1] = molecular target: T1, IGFBP7-His protein (Homo sapiens (Human)) (UniProt Q16270); assay: ELISA: IGFBP7-His coated wells, CD93-His, then MMRN2-Ig (FIG. 28C)
T1 sequence: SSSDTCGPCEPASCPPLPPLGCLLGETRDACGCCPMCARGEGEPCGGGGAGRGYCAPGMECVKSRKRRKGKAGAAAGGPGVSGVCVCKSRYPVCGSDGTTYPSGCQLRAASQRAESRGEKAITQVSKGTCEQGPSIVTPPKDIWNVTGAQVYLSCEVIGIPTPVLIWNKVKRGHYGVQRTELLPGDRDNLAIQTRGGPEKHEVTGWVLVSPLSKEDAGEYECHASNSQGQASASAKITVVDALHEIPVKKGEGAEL

[2] = molecular target: T2, human IGFBP7 (expression construct in the GSRA library; endogenous in HUVEC lysate; exogenous IGFBP7 protein) (human) (UniProt Q16270); assay: human genome-scale receptor array (GSRA) screened with CD93-Ig (FIG. 4A)
T2 sequence: T1 sequence

[3] = molecular target: T2, human IGFBP7 (expression construct in the GSRA library; endogenous in HUVEC lysate; exogenous IGFBP7 protein) (human); assay: human genome-scale receptor array (GSRA), FIG. 4A
[4] = molecular target: T2, human IGFBP7 (expression construct in the GSRA library; endogenous in HUVEC lysate; exogenous IGFBP7 protein) (human); assay: human genome-scale receptor array (GSRA): CD93-Ig on cells transfected with the IGFBP7 construct, image of the well
[5] = molecular target: T3, IGFBP7 protein (R&D Systems), labelled with a His-Tag Labeling Kit for MST (human) (UniProt Q16270); assay: microscale thermophoresis (MST), CD93 titrated against 10 nM labelled IGFBP7
T3 sequence (chain, RED-tris-NTA fluorescent dye bound to the His tag): T1 sequence

binding [1]: binds
Substance: CD93-His protein (from UniProt Q9NPY3 24-580) (receptor)

binding [2]: binds
binding [3]: binds
binding [4]: binds
Substance: CD93-Ig (probe of the human genome-scale receptor array) (from UniProt Q9NPY3 22-580) (Fc fusion)

binding [5]: binds
Substance: recombinant human CD93 protein (R&D Systems) (from UniProt Q9NPY3 24-580) (receptor)
